PubChem BioAssay AID2517 (National Center for Advancing Translational Sciences (NCATS), 2010)
Values joined by “and” are separate entries in the source; they are usually repeats but may differ in a detail not shown here. Identical values can stand only once. In all, about 350,000 compounds went through this assay and about 1,200 (0.34%) were called active. Inconclusive results, whose numbers are uncertain, are shown with a selection of clear calls. Calls come from the whole dose curve; as a rule, active = well fitted inhibition curve with a large enough effect; inconclusive = small, poorly fitted or top-dose-only effect; inactive = no such curve, though single readings can be large or run the other way. Where the call is inconclusive, the potency comes from a doubtful curve fit.

Protein sequences, listed by entry. Tags and fused reporters are not part of them.
UniProt P27695, whole entry, looked up: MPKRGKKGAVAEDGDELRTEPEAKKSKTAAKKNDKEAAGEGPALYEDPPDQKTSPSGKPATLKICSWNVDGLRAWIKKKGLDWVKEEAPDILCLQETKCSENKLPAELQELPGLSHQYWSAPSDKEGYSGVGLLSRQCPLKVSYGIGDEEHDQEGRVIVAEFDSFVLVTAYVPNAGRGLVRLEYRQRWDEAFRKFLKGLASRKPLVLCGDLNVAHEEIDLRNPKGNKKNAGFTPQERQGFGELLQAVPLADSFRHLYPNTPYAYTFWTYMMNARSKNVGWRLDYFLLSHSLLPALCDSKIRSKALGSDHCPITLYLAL

Molecular target: DNA repair nuclease/redox regulator APEX1 (Homo sapiens) (UniProt P27695)
Assay: qHTS Assay for Inhibitors of the Human Apurinic/apyrimidinic Endonuclease 1 (APE1); note: nearly all actives have a fitted effect of over 55% in size;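 for activity change, negative = inhibition: plate controls were vehicle for no effect and reference inhibitor for full effect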
Conditions: recombinant APE1, TAMRA/BHQ-2 abasic DNA cleavage fluorescence; activity change, negative = inhibition: at 65.8 µM (top of the series)
Summary of the method: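 APE1 at 0.75 nM final was preincubated with compound 15 min at room temperature, then 50 nM double-stranded THF abasic-site substrate (5'-TAMRA/3'-BHQ-2) was added. Fluorescence (ex 525/em 598 nm) was read kinetically; third-minus-first read gave activity.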
Potency is the fitted concentration of half-maximal effect.

| Compound | activity change, negative = inhibition | Potency |
| --- | --- | --- |
| O=C(Nc1nnc(COc2ccc(Cl)cc2)s1)c1cccs1 | inactive: -1.47% | – |
| C=CCSC1=N/C(=C\c2ccc(C(=O)O)cc2)C(=O)S1 | inactive: -2.95% | – |
| O=C(Cc1cccs1)Nc1nnc(SCc2ccc(Br)cc2)s1 | – | inconclusive: 35.5 µM [inhibitor, single point] |
| CCOC(=O)c1cc(C(=O)OCC)cc(-n2c(C)cc(C(=O)CN3CCOCC3)c2C)c1 | inactive: -4.46% | – |
| CC(=O)Nc1ccc(S(=O)(=O)N=S(C)(C)=O)cc1 | – | inconclusive: 3.16 µM [inhibitor, partial curve, poor fit] |
| N#Cc1c(Cl)nsc1NCCN1CCOCC1 | inactive: 13.4% | – |
| N#Cc1c(N)nc(Sc2ccc(Cl)cc2)c(C#N)c1-c1ccccc1Cl | – | inconclusive: 44.7 µM [inhibitor, single point] |
| COc1cc2c(cc1OC)C1(CCCC1)CNC2c1cccc([N+](=O)[O-])c1 (stereo not given) | – | inconclusive: 39.8 µM [inhibitor, single point] |
| COc1ccc(C(C)=O)cc1COC(=O)c1ccc(N)c([N+](=O)[O-])c1 | inactive: -5.2% | – |
| Cc1nn(Cc2ccc([N+](=O)[O-])cc2)c(=O)n1-c1cccc(Cl)c1 | – | inconclusive: 15.8 µM [inhibitor, partial curve] |
| COc1ccc2c(c1)OC(=O)CC2c1ccc2c(c1)OCO2 (stereo not given) | inactive: -1.89% | – |
| CC1=NN(c2ccccc2)C(=O)C1 | – | inconclusive: 39.8 µM [inhibitor, partial curve] and inconclusive: 3.98 µM [inhibitor, full curve] |
| CCOCc1cnc(C)nc1NCC(=O)c1c(C)n(C)c2ccc(OC)cc12 | inactive: -6.99% | – |
| CCN(CC)S(=O)(=O)c1ccc2c(c1)nc(CCC(=O)Nc1ccc(N3CCOCC3)cc1)n2C | – | inconclusive: 22.4 µM [inhibitor, single point] |
| CCc1ccc(/C=C2\Oc3cc(OC(=O)N4CCOCC4)ccc3C2=O)cc1 | – | inconclusive: 7.94 µM [inhibitor, single point] |
| N#C/C(=C\c1c[nH]c2ccccc12)C(=O)c1ccc(O)c(O)c1 | – | inconclusive: 12.6 µM [inhibitor, partial curve] |
| CC(C)(C)C(=O)c1cnc(Nc2ccccc2)s1 | – | inconclusive: 3.55 µM [inhibitor, partial curve] |
| CC(O)c1nc2ccccc2n1CCCc1ccccc1 (stereo not given) | – | inconclusive: 33.6 µM [inhibitor, single point] |
| O=C(COc1ccc(Cl)cc1)N1CCN(c2ccc([N+](=O)[O-])c(N3CCOCC3)c2)CC1 | – | inconclusive: 0.002 µM [inhibitor, full curve] |
| CCOc1ccc(CC(=O)N2N=C(C)CC2(O)C(F)(F)F)cc1 (stereo not given) | – | inconclusive: 0.126 µM [inhibitor, full curve, poor fit] |
